Publication PMC10539308, “Acetylation reprograms MITF target selectivity and residence time”
Construct, isoform or probe ends are uncertain for at least one entry. The comparison behind a weaker result is the experiment's own reference, which may not be listed here. At least one verdict was read from the data and is not stated in words by the source.

Amino acid sequences for entries named in this document (tags omitted). Residues count along the entry.
UniProt Q08874, 287-403 K313Q: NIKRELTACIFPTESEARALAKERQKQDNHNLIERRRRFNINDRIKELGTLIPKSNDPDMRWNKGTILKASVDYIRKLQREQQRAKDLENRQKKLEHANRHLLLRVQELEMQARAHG
UniProt Q08874, 287-403 K313R: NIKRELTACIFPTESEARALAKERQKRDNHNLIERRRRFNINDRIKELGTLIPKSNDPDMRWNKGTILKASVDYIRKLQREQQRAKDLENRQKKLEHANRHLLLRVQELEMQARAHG

Columns and labels:
MITF DBD K206Q K313Q = MITF DBD K206Q K313Q (UniProt Q08874); assay: fluorescence anisotropy; settings: 10 mM Tris/HCl pH 7.5, 300 mM NaCl, 0.01% Triton X-100, 0.1 mg/mL BSA, 25 C, 5 min, 1.33 nM dsDNA, quadratic fit, n=3, recombinant protein, residues 287-403, protein details: His (Ni-NTA purified, pETM-11), label: 3' fluorescein on strand 1
MITF DBD K206R K313R = MITF DBD K206R K313R (UniProt Q08874); assay: fluorescence anisotropy; settings: similar to WT; 10 mM Tris/HCl pH 7.5, 300 mM NaCl, 0.01% Triton X-100, 0.1 mg/mL BSA, 25 C, 5 min, 1.33 nM dsDNA; quadratic fit, n=3; recombinant protein; residues 287-403; protein details: His (Ni-NTA purified, pETM-11); label: 3' fluorescein on strand 1

Does “GAGATCACGTGATGAC (double strand) [CLEAR-box]” bind (MITF DBD K206Q K313Q; largely as Ac-K206, moderate reduction)?
Result: binds more weakly

Does “GAGATCACGTGATGAC (double strand) [CLEAR-box]” bind (MITF DBD K206R K313R)?
Result: binds

Does “GAGATCATGTGATGAC (double strand) [TYR enhancer]” bind (MITF DBD K206Q K313Q; largely as Ac-K206)?
Result: binds more weakly

Does “GAGATCATGTGATGAC (double strand) [TYR enhancer]” bind (MITF DBD K206R K313R)?
Result: binds

Does “GAGATCATGTGTTGAC (double strand) [M-box]” bind (MITF DBD K206Q K313Q; largely as Ac-K206, severe reduction)?
Result: binds more weakly

Does “GAGATCATGTGTTGAC (double strand) [M-box]” bind (MITF DBD K206R K313R)?
Result: binds more weakly
